Here are results for 21 substances from patent US11279735B2 (priority 2017, dated 2022).

The series is described as follows: general procedure: Fmoc solid-phase peptide synthesis; 2-chlorotrityl chloride resin (loading 0.956 mmol/g) or 2-chlorotrityl resin preloaded with glycine (0.536 mmol/g); HOBt couplings; HBTU/DIPEA; triphosgene/2,4,6-trimethylpyridine for the beta-hyd. As to conditions: TFA salt; for step yield: late stage modification step; for cyclisation yield: cyclisation step.

As to “(3R,6S,9S,12S,15S,18R,19R)-6,9-Bis(aminomethyl)-12-cycloheptyl-19-hexyl-15-isobutyl-3,16,18-trimethyl-1-oxa-4,7,10,13,16-pentazacyclononadecane-5,8,11,14,17-pentone”, the step yield turned out to be 20.9% yield. Same read-out and setting: in the case of “(6S,9S,12S,15S,18R,19R)-12-((R)-sec-butyl)-19-hexyl-6-((S)-1-hydroxyethyl)-9-(hydroxymethyl)-15-isobutyl-16-methyl-18-(3-(p-tolyl)propyl)-1-oxa-4,7,10,13,16-pentaazacyclononadecane-2,5,8,11,14,17-hexaone” it was “(26%)”. On to “(6S,9S,12S,15S,18R,19R)-9-(Aminomethyl)-6-((3-aminopropoxy)methyl)-12-cyclohexyl-19-hexyl-15-isobutyl-16,18-dimethyl-1-oxa-4,7,10,13,16-pentaazacyclononadecane-2,5,8,11,14,17-hexaone”, for which the step yield worked out at 20% yield. The isolated yield (whole synthesis) was found to be 45% yield. As for “(3R,6S,9S,12S,15S,18R,19R)-6-[(2-Aminoethylamino)methyl]-9-(aminomethyl)-12-cycloheptyl-19-hexyl-15-isobutyl-3,16,18-trimethyl-1-oxa-4,7,10,13,16-pentazacyclononadecane-5,8,11,14,17-pentone”, the step yield is given as 9.6% yield. For the substance “(3R,6S,9S,12S,15S,18R,19R)-9-(Aminomethyl)-12-cycloheptyl-19-hexyl-6-(((2-hydroxyethyl)amino)methyl)-15-isobutyl-3,16,18-trimethyl-1-oxa-4,7,10,13,16-pentaazacyclononadecane-5,8,11,14,17-pentaone”, the step yield turned out to be 25.2% yield. The same measure, in the same setting: in the case of “(6S,9S,12S,15S,18R,19R)-9-(Aminomethyl)-12-cycloheptyl-19-hexyl-6-((S)-1-hydroxyethyl)-15-isobutyl-16,18-dimethyl-1-oxa-4,7,10,13,16-pentaazacyclononadecane-2,5,8,11,14,17-hexaone” it was 10% yield; in that of “(6S,9S,12S,15S,18R,19R)-12-((R)-sec-Butyl)-18-ethyl-9-heptyl-6-((S)-1-hydroxyethyl)-9-(hydroxymethyl)-15-isobutyl-16-methyl-1-oxa-4,7,10,13,16-pentaazacyclononadecane-2,5,8,11,14,17-hexaone”, 5.2% yield; in that of “(3R,6S,9S,12S,15S,18R,19R)-9-(Aminomethyl)-12-cyclohexyl-6-((3-(dimethylamino)propoxy)methyl)-19-hexyl-15-isobutyl-3,16,18-trimethyl-1-oxa-4,7,10,13,16-pentaazacyclononadecane-5,8,11,14,17-pentaone”, 30% yield.

On to “(6S,9S,12S,15S,18R,19R)-9-(Aminomethyl)-19-decyl-12-(4,4-difluorocyclohexyl)-6-((S)-1-hydroxyethyl)-15-isobutyl-16,18-dimethyl-1-oxa-4,7,10,13,16-pentaazacyclononadecane-2,5,8,11,14,17-hexaone”, for which the cyclisation yield turned out to be 78% crude yield and the step yield result is recorded as “(20%)”. For the same substance, the crude yield (whole synthesis) was 95%. Regarding “(6S,9S,12S,15S,18R,19R)-9-(aminomethyl)-12-((R)-sec-butyl)-19-decyl-6-((S)-1-hydroxyethyl)-15-isobutyl-16,18-dimethyl-1-oxa-4,7,10,13,16-pentaazacyclononadecane-2,5,8,11,14,17-hexaone”, the cyclisation yield was 35% yield and the step yield is given as 13% yield. In addition, the crude yield (whole synthesis, over two steps) turned out to be 37% yield over two steps. With “(6S,9S,12S,15S,18R,19R)-18-([1,1′-Biphenyl]-4-ylmethyl)-9-(aminomethyl)-12-cyclohexyl-19-hexyl-6-((S)-1-hydroxyethyl)-15-isobutyl-16-methyl-1-oxa-4,7,10,13,16-pentaazacyclononadecane-2,5,8,11,14,17-hexaone”, the step yield stood at 38% yield.

Consider “(3R,6S,9S,12S,15S,18R,19R)-9-(Aminomethyl)-12-cyclohexyl-6-(((S)-2,3-dihydroxypropoxy)methyl)-19-hexyl-15-isobutyl-3,16,18-trimethyl-1-oxa-4,7,10,13,16-pentaazacyclononadecane-5,8,11,14,17-pentaone”, for which the step yield runs as follows: (run 1) 83% yield; (run 2) 6% yield. Consider “Benzyl (((3R,6S,9S,12S,15S,17aR,23aR,Z)-6-((S)-1-(benzyloxy)ethyl)-12-cyclohexyl-3,16-dimethyl-5,8,11,14,17-pentaoxo-15-propyl-2,3,4,5,6,7,8,9,10,11,12,13,14,15,16,17,17a,18,19,22,23,23a-docosahydrocycloocta[r][1l]oxa[4,7,10,13,16]pentaazacyclononadecin-9-yl)methyl)carbamate”, for which the cyclisation yield was determined as 81% yield.

Regarding “(6S,9S,12S,15S,18R,19R)-9-(Aminomethyl)-12-cyclohexyl-6-((S)-1-hydroxyethyl)-15-isobutyl-16,18-dimethyl-19-(7-methyloctyl)-1-oxa-4,7,10,13,16-pentaazacyclononadecane-2,5,8,11,14,17-hexaone”, the cyclisation yield was determined as 40% yield. In the case of “(3R,6S,9S,12S,15S,18R,19R)-6-((3-Amino-2-hydroxypropoxy)methyl)-9-(aminomethyl)-12-cyclohexyl-19-hexyl-15-isobutyl-3,16,18-trimethyl-1-oxa-4,7,10,13,16-pentaazacyclononadecane-5,8,11,14,17-pentaone”, the step yield is reported as 10.3% yield.

As to “tert-Butyl N-[[(3R,6S,9S,12S,15S,18R,19R)-6-[[2-[tert-butyl(dimethyl)silyl]oxyethylamino]methyl]-12-cycloheptyl-19-hexyl-15-isobutyl-3,16,18-trimethyl-5,8,11,14,17-pentaoxo-1-oxa-4,7,10,13,16-pentazacyclononadec-9-yl]methyl]carbamate”, the step yield came to 41.6% yield. Consider “(3S,6S,9S,12S,15S,18R,19R)-9-(aminomethyl)-12-((R)-sec-butyl)-19-decyl-6-((S)-1-hydroxyethyl)-15-isobutyl-3,16,18-trimethyl-1-oxa-4,7,10,13,16-pentaazacyclononadecane-2,5,8,11,14,17-hexaone”, for which the step yield is reported as 34% yield. Turning to “(3R,6S,9S,12S,15S,18R,19R)-9-(Aminomethyl)-18,19-dibutyl-12-cyclohexyl-6-((S)-1-hydroxyethyl)-3,16-dimethyl-15-propyl-1-oxa-4,7,10,13,16-pentaazacyclononadecane-5,8,11,14,17-pentaone”, the step yield was 5% yield. Take “(3R,6S,9S,12S,15S,18R,19R)-6-((4-Aminobutoxy)methyl)-9-(aminomethyl)-12-cyclohexyl-19-hexyl-15-isobutyl-3,16,18-trimethyl-1-oxa-4,7,10,13,16-pentaazacyclononadecane-5,8,11,14,17-pentaone”: the cyclisation yield came out at 95% yield. For the substance “N-(((6S,9S,12S,15S,18R,19R)-9-(Aminomethyl)-12-cyclohexyl-19-hexyl-15-isobutyl-16,18-dimethyl-2,5,8,11,14,17-hexaoxo-1-oxa-4,7,10,13,16-pentaazacyclononadecan-6-yl)methyl)azetidine-3-carboxamide”, the step yield came out at 16% yield.

Consider “(3R,6S,9S,12S,15S,18R,19R)-9-(Aminomethyl)-12-cyclohexyl-19-hexyl-6-((S)-1-hydroxyethyl)-15-isobutyl-3,16,18-trimethyl-1-oxa-4,7,10,13,16-pentaazacyclononadecane-5,8,11,14,17-pentaone”, for which the step yield amounted to 10% yield.
